The values below come from paper PMC7819943, “Rice protein-binding microarrays: a tool to detect cis-acting elements near promoter regions in rice”.

The chains behind the UniProt entries cited, without tags or fusion partners.
UniProt Q0JBA9, entry or part of it: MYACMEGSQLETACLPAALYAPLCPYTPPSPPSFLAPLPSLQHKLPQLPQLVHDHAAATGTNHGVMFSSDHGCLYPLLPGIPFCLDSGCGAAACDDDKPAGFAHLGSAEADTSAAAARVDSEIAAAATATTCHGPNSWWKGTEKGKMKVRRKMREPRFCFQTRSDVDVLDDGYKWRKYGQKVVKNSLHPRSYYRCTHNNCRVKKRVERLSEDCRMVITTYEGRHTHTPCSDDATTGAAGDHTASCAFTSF

The other results are listed elsewhere or left out.

The target of this assay is OsWRKY34 (Oryza sativa, UniProt Q0JBA9 1-250). Put plainly: protein-binding microarray (RPBM); PBS, 2% BSA, 51.3 ng/ul salmon testes DNA, 50 uM zinc acetate, 200 nM TF, 25 C, 1 h; high values mean tight binding. Conditions: protein: recombinant; tags: N-terminal polyhistidine and DsRed monomer fusion (pET32a); label: CyDye5-dUTP incorporated in the synthesized complementary strand; 3' TTTTT single-stranded linker to array surface; dsDNA, one strand shown. The essentials:
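Binding signal is reported as fluorescence intensity per feature (arbitrary units) from an Axon 4000B scanner. Incubation used 200 nM of each Ni–NTA-purified, N-terminally polyhistidine- and DsRed-fused transcription factor from E. coli BL21-CodonPlus on a double-stranded custom Agilent array for 1 h at 25 °C, with 50 µM zinc acetate in the buffer, followed by washing.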
In the case of “CTTTTCCCCATCCGAGCCTTGAGCTCTTCTTCTTCTCTCTCGGAGTCACCTAGTGCAG”, the binding signal was 9610 fluorescence intensity (a.u.).
Take “CCTAAACCCACCCCACCCCACGCCGACGAAACCCTAATCCCGGAGTCACCTAGTGCAG”: the binding signal was 9960 fluorescence intensity (a.u.).
On to “TTTTTTTCTAGAATTTTTGGTGATATCTGCTAGTTCGTGTCGGAGTCACCTAGTGCAG”, for which the binding signal was 8390 fluorescence intensity (a.u.).
As to “ATCAGTAGAACTTATGGTATGGGTATCTAATCTCGTACTTCGGAGTCACCTAGTGCAG”, the binding signal was 8150 fluorescence intensity (a.u.).
With “GACACAACCAAAGCACCATTCTGTTGTACTCCGTTTTCCTCGGAGTCACCTAGTGCAG”, the binding signal was 8840 fluorescence intensity (a.u.).
The value for “CAGATCATGCCACTCCATTGCTGCCCCGACTGGCGCCATGCGGAGTCACCTAGTGCAG” was 8570 fluorescence intensity (a.u.).
As for “CTTTTAGCATCACATCACATAATGACATTACACTCAAGTTCGGAGTCACCTAGTGCAG”, the binding signal was 9600 fluorescence intensity (a.u.).
In the case of “CCTGCTTCTTCCGTGTGTGTATATATCCACCCTCCACCTCCGGAGTCACCTAGTGCAG”, the binding signal is 9450 fluorescence intensity (a.u.).
Turning to “CTGTTCTTCTACGGTTTCTTGGTTAGGTTGCTTGCAGAGACGGAGTCACCTAGTGCAG”, the binding signal is 8920 fluorescence intensity (a.u.).
As for “TCCGAGGCAGATCTCCACACGTATCTCCGCACTTGACTTTCGGAGTCACCTAGTGCAG”, the binding signal is 9700 fluorescence intensity (a.u.).
The value for “TCTTGTGGTTTTGGATCGGGTTGGTGGTGGTGGTGGAGCTCGGAGTCACCTAGTGCAG” was 15700 fluorescence intensity (a.u.); that for “GATGTACTCCTACCTTGGGAATGGTCGTTCTCACTTCCGTCGGAGTCACCTAGTGCAG” was 9840 fluorescence intensity (a.u.); that for “GCGCCACCAACACACTACACTAGCAAGCTTGGTACTAATCCGGAGTCACCTAGTGCAG” was 9400 fluorescence intensity (a.u.).
Consider “AAATGATTTTCTCTTCTTCTTTTTTTTTGTTCGGCAGAGACGGAGTCACCTAGTGCAG”, for which the binding signal is 8190 fluorescence intensity (a.u.).
Regarding “GGTTTCTCACCTGGATTTGTGCCATTTGGTTGTACTTGTACGGAGTCACCTAGTGCAG”, the binding signal was 10200 fluorescence intensity (a.u.).
Take “CATGGCTTTGTGTTAACTGTGAACTCCCTCATCCCTTCTTCGGAGTCACCTAGTGCAG”: the binding signal was 11600 fluorescence intensity (a.u.).
The value for “TTTCCTCCGTTTCACAATGTAAGTCATTCTAGTATTTCCTCGGAGTCACCTAGTGCAG” was 9570 fluorescence intensity (a.u.).
The value for “GTTCTTGTAGCAAATGGATCCAGTTTTTCGATGAAATTTCCGGAGTCACCTAGTGCAG” was 8740 fluorescence intensity (a.u.).
With “TGTTAGGGTGGGGTACTGCCTACGTGGGCCAATGCCTTCTCGGAGTCACCTAGTGCAG”, the binding signal was 12300 fluorescence intensity (a.u.).
For “TTGTGTACTTGTAGAGAATATTTGACTATACATCCTGTTCCGGAGTCACCTAGTGCAG”, the binding signal is 8830 fluorescence intensity (a.u.).
For “CGGATTCCTGATTTCCCAGTCTCTGGCTTTCTTTTTAAACCGGAGTCACCTAGTGCAG”, the binding signal is 8270 fluorescence intensity (a.u.).
On to “CTCGTCCACCCTTTTCTGCTCCATGTTTTCATCATCATCTCGGAGTCACCTAGTGCAG”, for which the binding signal is 11900 fluorescence intensity (a.u.).
With “GGCGCGGGGTAGTGGTGGGGATGAAAATGATAGAAAGTTACGGAGTCACCTAGTGCAG”, the binding signal was 12300 fluorescence intensity (a.u.).
For “TGTAATTTTTTTTGGCGCACTGCTTTTGCCTACCATCTCTCGGAGTCACCTAGTGCAG”, the binding signal was 13100 fluorescence intensity (a.u.).
Turning to “TTTTGTTTTCTTTCGATTGCCTTTGCAAATCGCAATTCTTCGGAGTCACCTAGTGCAG”, the binding signal was 11000 fluorescence intensity (a.u.).
In the case of “CCGCGTCGTCGTCGTCTCCGGCCTCCGCTTCCTCGCCGACCGGAGTCACCTAGTGCAG”, the binding signal was 9910 fluorescence intensity (a.u.).
For the sequence “TGGTGTGTGAGGAAGAGAGCGCGCGGCGTTGTTGGGTGTGCGGAGTCACCTAGTGCAG”, the binding signal was 8470 fluorescence intensity (a.u.).
For the sequence “TTACTGTTGCTGGCCCCAACCACCCTGCATGGATTACAACCGGAGTCACCTAGTGCAG”, the binding signal is 8340 fluorescence intensity (a.u.).
Then “TTCTTCTCTACTAGTATATCACTTCCGAATTCCAACAAGACGGAGTCACCTAGTGCAG”, with 9280 fluorescence intensity (a.u.); and “GCCGCCGCCGCCGCCTTCGCCGCCGTTTGGTCTCGTCGCCCGGAGTCACCTAGTGCAG”, with 8090 fluorescence intensity (a.u.); and “AACGCTCTACTGGATCCAAAATTCCCCATCATATAACAAGCGGAGTCACCTAGTGCAG”, with 8250 fluorescence intensity (a.u.).
The value for “AACTCAAAATTTTTAACTAAATTTTAAAATTTTTTGACTCCGGAGTCACCTAGTGCAG” was 8270 fluorescence intensity (a.u.); that for “TAGTGATGTATACACTTCCTTTATCACTTTTGTTTGCATTCGGAGTCACCTAGTGCAG” was 9990 fluorescence intensity (a.u.).
Consider “CTAGGGAGGAGGTGGGGTCTGGCCGGGGCTAAGGACATCTCGGAGTCACCTAGTGCAG”, for which the binding signal was 11600 fluorescence intensity (a.u.).
As for “AATCGATGAGGCCCTACGTGTGTTTTCTGTCAGCTTGCTACGGAGTCACCTAGTGCAG”, the binding signal was 8880 fluorescence intensity (a.u.).
As to “TCCTCGTCGTCTCCTCCGCTCCTCGTGCCATCTCGCGGCTCGGAGTCACCTAGTGCAG”, the binding signal is 9120 fluorescence intensity (a.u.).
For “CACCTAGTATACTCACAATGTTTCACTATGTATAGATCTACGGAGTCACCTAGTGCAG”, the binding signal is 9570 fluorescence intensity (a.u.).
The value for “TCCTACAGCTTTGCCCGCACCGCTCCGTCGTCCCGGCCGTCGGAGTCACCTAGTGCAG” was 8210 fluorescence intensity (a.u.); that for “ACCGATTTTTGAGTTATCTACATTGCCTTGCAACTATACCCGGAGTCACCTAGTGCAG” was 9350 fluorescence intensity (a.u.); that for “CGTTTTTTAATAGATGACGCCGTTGACTTTTTCTCACATGCGGAGTCACCTAGTGCAG” was 31400 fluorescence intensity (a.u.).
As for “TTTTGTTCGCTACTATAGGCCCACACGTCTGTGCCCATGGCGGAGTCACCTAGTGCAG”, the binding signal is 8660 fluorescence intensity (a.u.).
Regarding “CCGCGGACGAACCCTCCTACTCTTCTTCTTCTTCTTGTGTCGGAGTCACCTAGTGCAG”, the binding signal was 9420 fluorescence intensity (a.u.).
